54 sequences from publication PMC7819943, “Rice protein-binding microarrays: a tool to detect cis-acting elements near promoter regions in rice” can be followed below.

Protein sequences, listed by entry. Tags and fused reporters are not part of them.
UniProt Q0JBA9, entry or part of it: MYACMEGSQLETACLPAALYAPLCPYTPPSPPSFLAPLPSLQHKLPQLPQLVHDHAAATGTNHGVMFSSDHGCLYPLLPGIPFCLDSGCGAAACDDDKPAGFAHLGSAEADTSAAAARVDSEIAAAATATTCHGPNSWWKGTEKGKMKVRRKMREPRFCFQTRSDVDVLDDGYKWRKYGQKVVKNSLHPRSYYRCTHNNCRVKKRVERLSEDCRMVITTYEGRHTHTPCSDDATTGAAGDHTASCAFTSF

This is one part of the list.

This assay concerns the target OsWRKY34 (Oryza sativa, UniProt Q0JBA9 1-250). As to the kind of experiment: protein-binding microarray (RPBM); PBS, 2% BSA, 51.3 ng/ul salmon testes DNA, 50 uM zinc acetate, 200 nM TF, 25 C, 1 h; high values mean tight binding. Particulars: protein: recombinant; tags: N-terminal polyhistidine and DsRed monomer fusion (pET32a); label: CyDye5-dUTP incorporated in the synthesized complementary strand; 3' TTTTT single-stranded linker to array surface; dsDNA, one strand shown. The procedure, abridged:
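Per-feature fluorescence intensity (arbitrary units), read on an Axon 4000B scanner, is the binding signal. Transcription factors carrying an N-terminal polyhistidine tag and DsRed fusion were expressed in E. coli BL21-CodonPlus and purified on Ni–NTA. A custom Agilent array, made double-stranded by primer extension with Cy5-dUTP and blocked with 2% BSA, was incubated with 200 nM protein in PBS, 2% BSA, salmon testes DNA and 50 µM zinc acetate at 25 °C for 1 h and then washed.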
“GGGGTGTTAGTTAATTGCATGTATCCGTACGTGACTTGTACGGAGTCACCTAGTGCAG”: the binding signal is 14400 fluorescence intensity (a.u.). The value for “GCGGGCTTCAAAACAACTTTTCTCATAAACTAATTATCCACGGAGTCACCTAGTGCAG” was 8540 fluorescence intensity (a.u.); that for “TAGTATAACTTACATCATTTCTCATCCTCCTATTACTATTCGGAGTCACCTAGTGCAG” was 8840 fluorescence intensity (a.u.). The result for “GAGCTACAACCCGGTAATTAGCATTATCATTTATATTTACCGGAGTCACCTAGTGCAG” reads 8440 fluorescence intensity (a.u.); that for “CAATTGGCGCCATATTTTGGAGTGAGCATATCAACCTCTCCGGAGTCACCTAGTGCAG”, 8460 fluorescence intensity (a.u.). For “TTGATCCTTTTTCGCCGCTCACGCCGAGCTGCCCCGACAACGGAGTCACCTAGTGCAG”, the binding signal is 8340 fluorescence intensity (a.u.). The result for “CCTTATACTGTCTCACTTGTCTCACACTGAAACCGTTTTCCGGAGTCACCTAGTGCAG” reads 8410 fluorescence intensity (a.u.); that for “TTATAACACCAGTCGTTTTCTACAACTTTGTTGTTTTTTCCGGAGTCACCTAGTGCAG”, 10100 fluorescence intensity (a.u.); that for “CATCTTTGATCTCATCCTGTTCCAGCTCCTAGTGCACCACCGGAGTCACCTAGTGCAG”, 9330 fluorescence intensity (a.u.). The result for “CACATTTTTCGGCATCCCACCAACCCGTCGACCCCGGCATCGGAGTCACCTAGTGCAG” reads 8390 fluorescence intensity (a.u.); that for “AGCAGTATCTAGTTCTGCCTTGTTCTTGCTCCTTATATAACGGAGTCACCTAGTGCAG”, 8350 fluorescence intensity (a.u.). Regarding “GCTCCCGTCGCCGTCCGTACCCCGGCTCCCGGCGACCGCCCGGAGTCACCTAGTGCAG”, the binding signal is 9940 fluorescence intensity (a.u.). The result for “ACAATATCTTCTAACTTAACCTGTTGCGGCTTGTTTGTTACGGAGTCACCTAGTGCAG” reads 10300 fluorescence intensity (a.u.); that for “TGTGACCACATCATCTGCACAGCTCAAGTCTCCATTACTACGGAGTCACCTAGTGCAG”, 8480 fluorescence intensity (a.u.); that for “CCGCAACCACAATTGGCTACATTTCACAATCACCTTTTTGCGGAGTCACCTAGTGCAG”, 9370 fluorescence intensity (a.u.). The value for “GGCGGTGGATGGTGGTGCGGCGGCAGGAAGGGCGGGAGCGCGGAGTCACCTAGTGCAG” was 10200 fluorescence intensity (a.u.); that for “TCCCGTACGCCTCTACTACCTCTTTTACCTGCGTGCCTTCCGGAGTCACCTAGTGCAG” was 11100 fluorescence intensity (a.u.). The value for “CTTCTCCTTGGATGCCTCGGCTTCCTCACCACATGCCCCGCGGAGTCACCTAGTGCAG” was 10000 fluorescence intensity (a.u.). As for “GTCGGTTTACAGTAGTGGGCCTTTGTCGATTCAGACCGGGCGGAGTCACCTAGTGCAG”, the binding signal was 8670 fluorescence intensity (a.u.). “CGTTCTGTCTTGATTATCTGTTCGTTCTTGATTATCCATTCGGAGTCACCTAGTGCAG”: the binding signal was 13200 fluorescence intensity (a.u.). The value for “AAAGCTCAACATTTCGGCCTTCTTATTTTGACTTTTTGGCCGGAGTCACCTAGTGCAG” was 12300 fluorescence intensity (a.u.); that for “GAGGTGTAATTTTAGCTTTTTTATTTGTGACGTACTCCATCGGAGTCACCTAGTGCAG” was 8620 fluorescence intensity (a.u.); that for “CCACACACCATTGCCGCATCATCCACCACCGCCTCCTCAGCGGAGTCACCTAGTGCAG” was 8990 fluorescence intensity (a.u.). With “TGGTTTCCGTGTCCAATGTTTGACCGTCCGTCTTATTTGACGGAGTCACCTAGTGCAG”, the binding signal is 11000 fluorescence intensity (a.u.). The result for “TTTCAAAATATTTGACACCGTTGACTTTTTAACACATGTTCGGAGTCACCTAGTGCAG” reads 17900 fluorescence intensity (a.u.). With “GCGCTTTTGTCTTGGTCATTGATCATTTCCACGATGAGATCGGAGTCACCTAGTGCAG”, the binding signal is 13000 fluorescence intensity (a.u.).

Take “TCATCCGGTGCCTGTTGTCTCTTTCTTCTCTCTCACATACCGGAGTCACCTAGTGCAG”: the binding signal was 16600 fluorescence intensity (a.u.). Take “CCACCGCCGCCTCCGCCGCCACCACGCACGCCAGGATCATCGGAGTCACCTAGTGCAG”: the binding signal was 8450 fluorescence intensity (a.u.). On to “GTTGGTTTGGTTAGAAGTTATCTTTTGTGTAATCATTTTTCGGAGTCACCTAGTGCAG”, for which the binding signal was 12200 fluorescence intensity (a.u.). The value for “GTTTTAATAATGTGTTTGTTTTGGGTTAAAAACCATACTACGGAGTCACCTAGTGCAG” was 8340 fluorescence intensity (a.u.); that for “TCAGTACTATGGTTTTTTTTTTTTTTGCTCAGCAATCGACCGGAGTCACCTAGTGCAG” was 8820 fluorescence intensity (a.u.). For the sequence “CCCATATTCCAACGTACCCCAATACTCTTTTCATCCGGTCCGGAGTCACCTAGTGCAG”, the binding signal was 9520 fluorescence intensity (a.u.).

Take “GACATACCTGCATGCTCTTCAATTGAAAATCGTTTCAGTTCGGAGTCACCTAGTGCAG”: the binding signal is 8320 fluorescence intensity (a.u.).

Consider “GGGTGAGTGGGATGGGTTGGTCCCTGGAGAGGAATATTCCCGGAGTCACCTAGTGCAG”, for which the binding signal is 10300 fluorescence intensity (a.u.). In the case of “TAACATGAACTTACTCATCAATTCCACATTTTTTAGTCGCCGGAGTCACCTAGTGCAG”, the binding signal is 9670 fluorescence intensity (a.u.).

“CCAAGTATAGCTGTATCGACCATTTGCCATATCGGCTCAACGGAGTCACCTAGTGCAG”: the binding signal was 8870 fluorescence intensity (a.u.).

Regarding “TTTGTTTTATTGTTAGTGCCTAATCGTTACAAATTTCAGTCGGAGTCACCTAGTGCAG”, the binding signal was 8390 fluorescence intensity (a.u.). The value for “GTCTGTTTGGATACTTTGCACAATCTTTGCATCGATCTTACGGAGTCACCTAGTGCAG” was 9380 fluorescence intensity (a.u.); that for “TTTTTGTTGACCAAATCAATTGTCCTTGTCCATCGCTATCCGGAGTCACCTAGTGCAG” was 13100 fluorescence intensity (a.u.). The value for “GTATTCTCAGGTTCGATTTCCACAAGGAACATGTGTGTCACGGAGTCACCTAGTGCAG” was 9190 fluorescence intensity (a.u.); that for “TGGTTGAATTCTGGTTCGGGTATCCTCAATTTCGGGGTTTCGGAGTCACCTAGTGCAG” was 17700 fluorescence intensity (a.u.). On to “AATTACCAGTTTTTTACGATGCCCTATAGCAAATTCACGTCGGAGTCACCTAGTGCAG”, for which the binding signal was 8180 fluorescence intensity (a.u.).

Consider “CTCTCTCTCACAATCTGTTGGGCGCCGCAAGACTCGGAAACGGAGTCACCTAGTGCAG”, for which the binding signal was 8200 fluorescence intensity (a.u.). As for “ATTTCTTCCATTCCATGTACTGTTTGGTTCCATTCCACCACGGAGTCACCTAGTGCAG”, the binding signal was 9340 fluorescence intensity (a.u.).

In the case of “ACGGTGTTCACCTGCAACGCCGTCCTCGCCGCGCTGCTCCCGGAGTCACCTAGTGCAG”, the binding signal was 8940 fluorescence intensity (a.u.). Consider “TTTGTTTGGTAAAATTTTTGGTGGGGATTGGAGTTGGAAACGGAGTCACCTAGTGCAG”, for which the binding signal was 9440 fluorescence intensity (a.u.).

As to “CTGTTACTTCACAGTTATTTTTGTTGGGTGGGGACGTGGGCGGAGTCACCTAGTGCAG”, the binding signal was 12600 fluorescence intensity (a.u.). “AGCCGGTACCCCGTCGACGACTACTGCTGCACCGAAGCCACGGAGTCACCTAGTGCAG”: the binding signal was 8470 fluorescence intensity (a.u.). The value for “GAGTCAAACATACGCGGTCCTCACTATAACCACGTCATCTCGGAGTCACCTAGTGCAG” was 8200 fluorescence intensity (a.u.). With “TCTCCTCTTTCCTCTGCCGCGCTATCTATCCACCACCTCTCGGAGTCACCTAGTGCAG”, the binding signal was 9040 fluorescence intensity (a.u.). The result for “CCCACCACAGCACCACTTGCTCAGCTTCTCTCTCTGTAACCGGAGTCACCTAGTGCAG” reads 8440 fluorescence intensity (a.u.); that for “TATAACTTTGACTATTTATAACTTTAAAACTATTTAGTTTCGGAGTCACCTAGTGCAG”, 8270 fluorescence intensity (a.u.). Turning to “GGAGTAGTAATTTGTTTTGACACAAGCATCGAGCTTTACACGGAGTCACCTAGTGCAG”, the binding signal is 8990 fluorescence intensity (a.u.). The result for “TACTACACTATTAATATATGGTCCAACCTGTCATACACACCGGAGTCACCTAGTGCAG” reads 10700 fluorescence intensity (a.u.).
